Measured values reported in paper PMC12809119.
No constants are given. Whether binding was seen depends on the method and setting. In cells and extracts the contact can be indirect. These calls come from enrichment with a bait or labelling near it, and not all partners need be listed. A no says only that the protein was not detected with the bait.

Chains of the proteins cited; added tags and fusions are not shown.
UniProt O60678: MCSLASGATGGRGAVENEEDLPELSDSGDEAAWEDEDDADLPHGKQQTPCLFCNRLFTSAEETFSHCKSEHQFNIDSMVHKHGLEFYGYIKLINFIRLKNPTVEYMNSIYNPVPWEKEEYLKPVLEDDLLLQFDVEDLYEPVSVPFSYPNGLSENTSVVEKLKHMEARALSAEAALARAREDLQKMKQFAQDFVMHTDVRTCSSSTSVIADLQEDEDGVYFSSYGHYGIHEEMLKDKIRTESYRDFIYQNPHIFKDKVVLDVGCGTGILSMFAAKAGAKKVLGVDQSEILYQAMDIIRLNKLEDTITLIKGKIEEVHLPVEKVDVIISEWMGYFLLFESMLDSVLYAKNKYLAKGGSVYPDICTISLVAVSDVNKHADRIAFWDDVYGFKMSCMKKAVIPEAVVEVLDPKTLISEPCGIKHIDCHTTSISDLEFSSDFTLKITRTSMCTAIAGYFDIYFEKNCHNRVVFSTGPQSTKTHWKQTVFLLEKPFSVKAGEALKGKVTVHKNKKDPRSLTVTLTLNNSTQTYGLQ
UniProt P14902: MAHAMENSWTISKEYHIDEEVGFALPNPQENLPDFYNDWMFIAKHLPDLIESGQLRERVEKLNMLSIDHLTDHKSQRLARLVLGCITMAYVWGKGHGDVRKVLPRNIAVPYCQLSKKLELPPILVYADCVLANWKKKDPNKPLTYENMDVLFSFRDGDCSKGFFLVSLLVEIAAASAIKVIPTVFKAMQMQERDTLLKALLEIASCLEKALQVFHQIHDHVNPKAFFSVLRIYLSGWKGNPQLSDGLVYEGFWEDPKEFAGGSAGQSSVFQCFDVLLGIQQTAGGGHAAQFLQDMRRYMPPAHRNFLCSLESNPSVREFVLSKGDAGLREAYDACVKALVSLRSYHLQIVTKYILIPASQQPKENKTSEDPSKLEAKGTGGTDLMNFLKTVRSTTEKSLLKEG
UniProt P05549: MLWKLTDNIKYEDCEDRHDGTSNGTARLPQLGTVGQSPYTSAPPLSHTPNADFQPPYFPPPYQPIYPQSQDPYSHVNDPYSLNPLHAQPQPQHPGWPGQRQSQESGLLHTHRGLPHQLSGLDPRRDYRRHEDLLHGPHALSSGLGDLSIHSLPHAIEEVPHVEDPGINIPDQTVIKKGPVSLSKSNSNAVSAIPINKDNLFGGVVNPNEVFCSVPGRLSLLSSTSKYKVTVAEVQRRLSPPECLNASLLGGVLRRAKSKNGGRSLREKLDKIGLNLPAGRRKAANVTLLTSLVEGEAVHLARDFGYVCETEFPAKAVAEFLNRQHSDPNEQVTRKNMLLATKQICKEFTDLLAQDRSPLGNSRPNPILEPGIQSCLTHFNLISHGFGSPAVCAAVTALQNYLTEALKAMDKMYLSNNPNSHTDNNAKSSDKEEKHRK

Molecular target: protein arginine methyltransferase-3 (PRMT3) (human) (UniProt O60678)
Assay: affinity purification with mass spectrometry; co-IP of PRMT3 from cell lysate, trypsin digestion, 4D-Fast DIA qualitative proteomics, DIA-NN search

binding	Substance
no binding	indoleamine 2,3-dioxygenase 1 (IDO1) (from UniProt P14902 1-403) (enzyme)
binds	transcription factor TFAP2A (from UniProt P05549 1-437)
